Data source: PubChem BioAssay AID1259331 (Drosophila RNAi Screening Center, 2017)
Shown is one part, drawn at random, of about 3,100 reagents. 126 of all reagents (4.1%) were called active. 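Calls are per reagent; zinc was so toxic that few knock-downs lowered ATP further, so most hits raise ATP.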 Raw values are not corrected between plates. The numbers tell different reagents against one gene apart. No sequences are given here. Not stated in the record: the amount of reagent.

Assay: 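Knock-downs that alter ATP level after a high zinc chloride dose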 (primary screen)
System: Drosophila S2R+ cells
Reagent: long dsRNA against Drosophila genes
Timing: 5 days (4 days knock-down, then 1 day zinc)
Treatment: zinc chloride at 15 mM final level for 1 day
Detection: 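Total cellular ATP measured by luciferase luminescence as a viability proxy, turned into Z scores from three plate copies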
Scale: mean Z score: higher = more ATP than other wells, better survival under zinc; ATP luminescence: higher = more ATP, more viable cells
Hit rule: 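a reagent is called a hit when its Z score is above 1.5 or below -1.5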
Meaning of the calls: active = hit, ATP up or down; inactive = not a hit

After knock-down of GluClalpha (GeneID 42350), the record shows mean Z score 0.211; ATP luminescence, replicate 1 = 39730; ATP luminescence, replicate 2 = 61335; inactive.
With knock-down of CG42826 (GeneID 10178905), the record shows mean Z score -0.143; ATP luminescence, replicate 1 = 76256; ATP luminescence, replicate 2 = 57288; inactive.
Knock-down of tank (GeneID 33684) gave: mean Z score -0.335; ATP luminescence, replicate 1 = 47319; ATP luminescence, replicate 2 = 39319; inactive.
Against Ent2 (GeneID 33921) #1, the values are mean Z score -1.11; ATP luminescence, replicate 1 = 46314; ATP luminescence, replicate 2 = 42268; inactive.
After knock-down of Ent2 (GeneID 33921) #2 the results were mean Z score -0.323; ATP luminescence, replicate 1 = 52487; ATP luminescence, replicate 2 = 50772; inactive.
With knock-down of CG32204 (GeneID 317913) #1, the record shows mean Z score 0.679; ATP luminescence, replicate 1 = 73821; ATP luminescence, replicate 2 = 80870; inactive.
CG32204 (GeneID 317913) #2 showed mean Z score 1.24; ATP luminescence, replicate 1 = 82294; ATP luminescence, replicate 2 = 78777; inactive.
For CG5888 (GeneID 34980) #1, the entry reads mean Z score 0.172; ATP luminescence, replicate 1 = 57399; ATP luminescence, replicate 2 = 59963; inactive.
CG5888 (GeneID 34980) #2 gave mean Z score -0.699; ATP luminescence, replicate 1 = 41651; ATP luminescence, replicate 2 = 51043; inactive.
Against Tmtc1 (GeneID 33455) #1 the deposit lists mean Z score -0.402; ATP luminescence, replicate 1 = 42045; ATP luminescence, replicate 2 = 39713; inactive.
Depletion of Tmtc1 (GeneID 33455) #2 came out at: mean Z score -0.36; ATP luminescence, replicate 1 = 38695; ATP luminescence, replicate 2 = 43742; inactive.
Silencing of side-VIII (GeneID 37310) #1 resulted in: mean Z score 0.508; ATP luminescence, replicate 1 = 52036; ATP luminescence, replicate 2 = 54750; inactive.
Against side-VIII (GeneID 37310) #2 the deposit lists mean Z score -0.0749; ATP luminescence, replicate 1 = 59380; ATP luminescence, replicate 2 = 61112; inactive.
With knock-down of CG18549 (GeneID 41538) #1 the results were mean Z score 0.612; ATP luminescence, replicate 1 = 39041; ATP luminescence, replicate 2 = 66463; inactive.
After knock-down of CG18549 (GeneID 41538) #2 the results were mean Z score 0.935; ATP luminescence, replicate 1 = 76685; ATP luminescence, replicate 2 = 74896; inactive.
CG33282 (GeneID 2768939) #1 showed mean Z score -0.444; ATP luminescence, replicate 1 = 40896; ATP luminescence, replicate 2 = 41051; inactive.
For CG33282 (GeneID 2768939) #2, the values are mean Z score -0.114; ATP luminescence, replicate 1 = 68349; ATP luminescence, replicate 2 = 53190; inactive.
For CG12914 (GeneID 36078), the entry reads mean Z score -0.092; ATP luminescence, replicate 1 = 77354; ATP luminescence, replicate 2 = 66754; inactive.
Knock-down of CG6928 (GeneID 39367) #1 came out at: mean Z score -0.359; ATP luminescence, replicate 1 = 28125; ATP luminescence, replicate 2 = 28928; inactive.
For CG6928 (GeneID 39367) #2 the deposit lists mean Z score 2.33; ATP luminescence, replicate 1 = 95245; ATP luminescence, replicate 2 = 96745; active.
Knock-down of Irk1 (GeneID 42742) resulted in: mean Z score -0.56; ATP luminescence, replicate 1 = 30456; ATP luminescence, replicate 2 = 50384; inactive.
nAChRalpha2 (GeneID 42919) #1 showed mean Z score 0.369; ATP luminescence, replicate 1 = 52693; ATP luminescence, replicate 2 = 48843; inactive.
Against nAChRalpha2 (GeneID 42919) #2 the deposit lists mean Z score 0.977; ATP luminescence, replicate 1 = 70630; ATP luminescence, replicate 2 = 70424; inactive.
Slc45-1 (GeneID 39055) gave mean Z score -0.422; ATP luminescence, replicate 1 = 67526; ATP luminescence, replicate 2 = 55736; inactive.

Reformatted: results already given.
gene	reagent no.	mean Z score	ATP luminescence, replicate 1	ATP luminescence, replicate 2	Outcome
Ent2 (GeneID 33921)	2	-0.323	52487	50772	inactive
CG32204 (GeneID 317913)	1	0.679	73821	80870	inactive
